# Assay results published in patent US20090074867A1, “ORALLY DISPERSIBLE PHARMACEUTICAL COMPOSITION AND PROCESS FOR THE PREPARATION THEREOF” (priority 2004, published 2009).
# Values joined by “and” are separate entries in the source; they are usually repeats but may differ in a detail not shown here. Equal values may be shown once.
# Assay: Evaluation of palatability, 5 individuals sensitive to the irritating action of ibuprofen
# Type: in vivo, persons
# Set-up: key: strong (3); medium (2); weak (1); zero (0)
# Details: 200 mg active ingredient, score per individual 1-5, higher = worse
structure (smiles),measurement,setting,value
"CC(C)Cc1ccc(C(C)C(=O)O)cc1 (centres unmarked) [Ibuprofen BP 80, Ibuprofen]",Burning t0,t0 when placed in the mouth,3
same,Dullness t0,t0 when placed in the mouth,3 (3×) and 2 (2×)
same,Prickling t0,t0 when placed in the mouth,3
same,Sandiness t0,t0 when placed in the mouth,2 (2×) and 1 (3×)
same,Tingling t0,t0 when placed in the mouth,3
same,Burning t1,t1 during swallowing,3
same,Dullness t1,t1 during swallowing,2 (3×) and 3 (2×)
same,Prickling t1,t1 during swallowing,3 (4×) and 2
same,Sandiness t1,t1 during swallowing,1
same,Tingling t1,t1 during swallowing,2 (2×) and 3 (3×)
same,Burning t2,t2 after swallowing,2 (2×) and 3 (2×) and 1
same,Dullness t2,t2 after swallowing,1 (3×) and 2 (2×)
same,Prickling t2,t2 after swallowing,2 and 3 (2×) and 1 (2×)
same,Sandiness t2,t2 after swallowing,0
same,Tingling t2,t2 after swallowing,2 (2×) and 3 and 1 (2×)
same,Burning t3,t3 after 5 minutes,1 (3×) and 3 and 2
same,Dullness t3,t3 after 5 minutes,0 (3×) and 1 (2×)
same,Prickling t3,t3 after 5 minutes,0 (2×) and 2 (2×) and 1
same,Sandiness t3,t3 after 5 minutes,0
same,Tingling t3,t3 after 5 minutes,2 and 1 (2×) and 0 (2×)
